These are yes or no findings as the source states them, for the method shown. Binding seen in cells or lysates may run through a third protein. Here binding means that the protein was enriched with, or labelled near, the bait; the list need not be complete.

Here are results for six molecules from paper PMC11126613.

The target of this assay is α5 integrin (mouse (endogenous in mouse lung microvascular ECs)). As to the kind of experiment: affinity purification with mass spectrometry; endogenous α5 integrin immunoprecipitated (Dynabeads Protein G with anti-α5 integrin antibody, 4 °C) from mouse microvascular EC lysates: WT/Ctrl, and siNRP1, siNRP2, siNRP1/2, sip120RasGAP ECs; α5.EC KO lysates as control for non-specific binding; LFQ-DIA-MS, Spectronaut, p < 0.01 cutoff; three independent experiments.

B1: Rab13 (protein, UniProt Q9DD03 1-202)
chain: MAKAYDHLFKLLLIGDSGVGKTCLIIRFAEDNFNSTYISTIGIDFKIRTVDIEGKRIKLQVWDTAGQERFKTITTAYYRGAMGIILVYDITDEKSFENIQNWMKSIKENASAGVERLLLGNKCDMEAKRQVQREQAEKLAREHRIRFFETSAKSSVNVDEAFSSLARDILLKTGGRRSGTNSKPSSTGLKTSDKKKNKCLLG
Turning to B1, the binding entry is “binds”.

B2: neuropilin 2 (receptor, UniProt O35375 21-931)
chain: RSQQDPPCGGRLNSKDAGYITSPGYPQDYPSHQNCEWIVYAPEPNQKIVLNFNPHFEIEKHDCKYDFIEIRDGDSESADLLGKHCGNIAPPTIISSGSVLYIKFTSDYARQGAGFSLRYEIFKTGSEDCSKNFTSPNGTIESPGFPEKYPHNLDCTFTILAKPRMEIILQFLTFDLEHDPLQVGEGDCKYDWLDIWDGIPHVGPLIGKYCGTKTPSKLRSSTGILSLTFHTDMAVAKDGFSARYYLIHQEPPENFQCNVPLGMESGRIANEQISASSTFSDGRWTPQQSRLHGDDNGWTPNLDSNKEYLQVDLRFLTMLTAIATQGAISRETQKGYYVKSYKLEVSTNGEDWMVYRHGKNHKIFQANNDATEVVLNKLHMPLLTRFIRIRPQTWHLGIALRLELFGCRVTDAPCSNMLGMLSGLIADTQISASSTREYLWSPSAARLVSSRSGWFPRNPQAQPGEEWLQVDLGTPKTVKGVIIQGARGGDSITAVEARAFVRKFKVSYSLNGKDWEYIQDPRTQQTKLFEGNMHYDTPDIRRFDPVPAQYVRVYPERWSPAGIGMRLEVLGCDWTDSKPTVETLGPTVKSEETTTPYPMDEDATECGENCSFEDDKDLQLPSGFNCNFDFPEETCGWVYDHAKWLRSTWISSANPNDRTFPDDKNFLKLQSDGRREGQYGRLISPPVHLPRSPVCMEFQYQAMGGHGVALQVVREASQESKLLWVIREDQGSEWKHGRIILPSYDMEYQIVFEGVIGKGRSGEISIDDIRISTDVPLENCMEPISAFAGEDFKVDIPETHGGEGYEDEIDDEYEGDWSNSSSSTSGAGDPSSGKEKSWLYTLDPILITIIAMSSLGVLLGATCAGLLLYCTCSYSGLSSRSCTTLENYNFELYDGLKHKVKINHQKCCSEA
B2: the binding entry was “binds”.

B3: Rab3GAP2 (protein, UniProt Q8BMG7 1-1366)
chain: MACSIVQFCSFQDLQSARDFLFPHLREETPGALKRDPSKTSSWEDDSWGAWEETEPREPEEEGNTSKTQKNSWLQECVLSLSPTSDLMVIAREQKAAFLVRKWKHGDKGKEEMQFAVGWSGSVSAEEGEYVTSALCIPLASQKRSSTGRPDWTCIVVGFTSGYVRFYTEGVLLLAQLLNEDKVLQLKCRTYEIPRHPGVTEQNEELSILYPAAIVTIDGFSLFQSLRACRNQVAKAAASGNENIQPPPLAYKKWGLQDIDTIIDHASVGIMTLSPFDQMKTASNIGGFNAAIKNSPPAMSQYITVGSSPFTGFFYALEGSTQPLLSHVALAVASKLTSALFSAASGWLGWKSKHEEDTVQKQKPKMEPATPLAVRFGLPDSRRHGESICLSPCNTLAAVTDDFGRVILLDVARGIAIRMWKGYRDAQVGWIQIVEDLHERVPEKGGFSPFGNTQGPSRVAQFLVIYAPRRGILEVWNTQQGPRVGAFNVGKHCRLLYPGYKIMGLNNVTSQSWQPQTYQICLVDPVSASVKAVNVPFHLALSDKKSERAKDLHLVKKLSALLRAKSPRPDSFETEIKELILDIKYPATKKQALESILASDRLSFSCLRNVTQTLMDTLKNQELESVDEGLLQFCASKLKLLHLYESVSQLNTLDFHSDTPFSDNDLAVLLRLDDKELLKLRALLEKYKQENTKATVRFSEDADRVLPVKTFLEYLEYEKDALSIRKIGEEECVALGSFFFWKCLHGKSSTEEMCHSLESAGLSPQQLLSLLLSVWLSKEKDILDKPQSVCCLHTMLSLLSKMKVAIDETWDSQSVSPWWQQMRMACIQSENSGAALLSAHVGHSVAAQMSSGATDKKFSQMELDADAEALTDSWEALSLDTEYWKLLLRQLEDCLILQTLLHSKLSPPAAKAPSLQSEPLPRLSVKKLLEGGKGGIADSVAKWIFKQDLSPELLKCANKERDVENPDEPREDLLHLAYEQFPCSLELDVLHAHCCWEYVVQWNKDPEEARFLVRSIEHLKQILNPHVQNGIALMMWNTFLVKRFSAATYLMDKVGKSPKDRLCRRDVGMSDTALTSFLGSCLELLQTSLEADISRDEVQVPVLDTEDAWLSVEGPISIVELALEQKPIHYPLVEHHSVLCSILYASMRFSLKSVKPLALFDSKGKNAFFKDLTSIQLLPSGEMDPNFISVRQQFLLKVVSAAVQAQHSKDKDPSAEAANTHWKDLNWPGLAVDLAHHLQVSDDVIRRHYVGELYSHGADLLGEEAIFQVQDKEVLASQLLVLTGQRLAHALFHTQTKEGMELLARLPPTLCTWLKAMNPQDLQNTGVPIAATAKLVHKVMELLPEKHGQYSLALHLIDAVEAMATL
In the case of B3, the binding result is listed as “binds”.

B4: RacGAP1 (protein, UniProt Q9WVM1 1-628)
chain: MDTTMVNLWTLFEQLVRRMEIINEGNESIEFIQVVKDFEDFRKKYQRTNQELEKFKDLLLKAETGRSALDVKLKHARNQVDVEIKRRQRAEAECAKLEQQIQLIRDILMCDTSGSIQLSEEQKSALAFLNRGQASSGHAGNNRLSTIDESGSILSDISFDKTDESLDWDSSLVKNFKMKKREKRRSNSRQFIDGPPGPVKKTCSIGSTVDQANESIVAKTTVTVPSDGGPIEAVSTIETLPSWTRSRGKSGPLQPVNSDSALNSRPLEPRTDTDNLGTPQNTGGMRLHDFVSKTVIKPESCVPCGKRIKFGKLSLKCRDCRLVSHPECRDRCPLPCIPPLVGTPVKIGEGMLADFVSQASPMIPAIVVSCVNEIEQRGLTEAGLYRISGCDRTVKELKEKFLKVKTVPLLSKVDDIHVICSLLKDFLRNLKEPLLTFWLSKAFMEAAEITDEDNSTAAMYQAVSELPQANRDTLAFLMIHLQRVSQSPDTKMDIANLAKVFGPTIVAHTVPNPDPVTMFQDIKRQLKVVERLLSLPLEYWNQFMMVDQENIDSQRGNGNSTPRTPDVKVSLLGPVTTPEFQLVKTPLSSSLSQRLYNLSKSTPRFGNKSKSATNLGQQGKFFPAPYLK
For the molecule B4, the binding entry is given as “binds”.

B5: caveolae-associated protein-1 (protein, UniProt O54724 1-392)
chain: MEDVTLHIVERPYSGFPDASSEGPEPTQGEARATEEPSGTGSDELIKSDQVNGVLVLSLLDKIIGAVDQIQLTQAQLEERQAEMEGAVQSIQGELSKLGKAHATTSNTVSKLLEKVRKVSVNVKTVRGSLERQAGQIKKLEVNEAELLRRRNFKVMIYQDEVKLPAKLSVSKSLKESEALPEKEGDELGEGERPEDDTAAIELSSDEAVEVEEVIEESRAERIKRSGLRRVDDFKKAFSKEKMEKTKVRTRENLEKTRLKTKENLEKTRHTLEKRMNKLGTRLVPVERREKLKTSRDKLRKSFTPDHVVYARSKTAVYKVPPFTFHVKKIREGEVEVLKATEMVEVGPEDDEVGAERGEATDLLRGSSPDVHTLLEITEESDAVLVDKSDSD
On to B5, for which the binding entry is “binds”.

B6: Golgi SNAP receptor complex 1 (protein, UniProt O88630 1-250)
chain: MAAGTSNYWEDLRKQARQLENELDLKLVSFSKLCTSYSHSGSRDGGRDRYSSDTTPLLNGSSQDRMFETMAIEIEQLLARLTGVNDKMAEYTHSAGVPSLNAALMHTLQRHRDILQDYTHEFHKTKANFTAIRERENLMGSVRKDIESYKSGSGVNNRRTELFLKEHDHLRNSDRLIEETISIAMATKENMTSQRGMLKSIHSKMNTLANRFPAVNSLIQRINLRKRRDSLILGGVIGICTILLLLYAFH
Turning to B6, the binding entry is given as “binds”.
